# Data published in PMC11119796.
# Chains of the proteins cited; added tags and fusions are not shown.
# UniProt P52480: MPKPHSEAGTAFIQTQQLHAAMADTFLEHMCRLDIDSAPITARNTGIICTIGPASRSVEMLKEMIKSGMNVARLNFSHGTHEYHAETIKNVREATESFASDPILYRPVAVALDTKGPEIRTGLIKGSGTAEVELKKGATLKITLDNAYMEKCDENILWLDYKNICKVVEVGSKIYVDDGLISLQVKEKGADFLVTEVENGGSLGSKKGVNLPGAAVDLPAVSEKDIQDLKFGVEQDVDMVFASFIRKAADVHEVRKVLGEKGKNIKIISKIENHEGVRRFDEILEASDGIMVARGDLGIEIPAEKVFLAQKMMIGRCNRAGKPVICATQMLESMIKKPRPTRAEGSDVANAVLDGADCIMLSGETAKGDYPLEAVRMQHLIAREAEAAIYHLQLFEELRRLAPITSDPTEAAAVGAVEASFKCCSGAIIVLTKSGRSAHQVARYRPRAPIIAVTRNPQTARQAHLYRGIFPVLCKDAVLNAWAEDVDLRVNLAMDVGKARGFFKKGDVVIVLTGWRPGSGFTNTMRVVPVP
# Results are given in words; binding and its absence hold for the method and conditions named. Binding seen in cells or lysates may run through a third protein. Some entries that bind do so weakly or less than the wild type. Where a sequence is shown, tags or fusion partners need not be part of it.
# Biological target: T1, ISLR-GFP (immunoglobulin superfamily containing leucine-rich repeat, GFP-tagged) (UniProt Q6GU68)
# T1 sequence: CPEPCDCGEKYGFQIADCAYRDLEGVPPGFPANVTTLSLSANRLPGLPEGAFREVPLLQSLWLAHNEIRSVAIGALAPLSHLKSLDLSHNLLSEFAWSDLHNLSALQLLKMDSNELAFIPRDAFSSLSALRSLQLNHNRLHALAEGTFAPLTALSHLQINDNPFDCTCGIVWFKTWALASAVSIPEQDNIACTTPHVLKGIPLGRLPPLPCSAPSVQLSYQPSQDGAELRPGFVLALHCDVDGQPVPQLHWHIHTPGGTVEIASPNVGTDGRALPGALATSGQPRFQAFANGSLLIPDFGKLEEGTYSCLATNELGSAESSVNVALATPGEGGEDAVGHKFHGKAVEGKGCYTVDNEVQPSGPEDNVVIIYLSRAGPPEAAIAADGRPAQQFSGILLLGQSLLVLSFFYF
# Assay: co-IP; HEK293T cells transfected with ISLR-GFP and PKM2-Flag, cultured 2 d; Flag antibody or ISLR antibody as the bait; Western blot; also under H2O2 treatment (Figure S3A)
substance,measurement,value
"PKM2-Flag (pyruvate kinase isozyme M2, Flag-tagged) (from UniProt P52480 1-531) (enzyme)",binding,binds
